Experimental data as given in US8709445B2, “Vaccination with killed but metabolically active (KBMA) protozoans with toll-like receptor agonists” (priority 2007, dated 2014).
For at least one compound, name, drawing or mass did not settle the structure.

Tested on: L. chagasi
Format: in vivo, Leishmania chagasi

For `CCOCc1nc2c(N)nc3ccccc3c2n1CC(C)(C)O` [resiquimod, 4-Amino-2-(ethoxymethyl)-a,a-dimethyl-1H-imidazo[4,5-c]quinoline-1-ethanol], which “animals with complete protection from liver infection” value (pilot experiment, subcutaneous KBMA-LC with topical resiquimod, N=8/group) is on record?
The value was “Two of 8”.

What about the “protection by TLR agonist alone” value (subsequent experiment, without parasites, data not shown) of the same molecule?
The value was “significant protection”.

And the “protection against leishmania challenge” value (topical TLR agonist, summary statement)?
Its value is “potential for profound protection”.
